Results are given in words; binding and its absence hold for the method and conditions named. Binding seen in cells or lysates may run through a third protein. Binding can be weak; no strength is given. Where a sequence is shown, tags or fusion partners need not be part of it.
B1: HA-TRAF3IP3 (protein, UniProt Q9Y228 1-551)
chain: MISPDPRPSPGLARWAESYEAKCERRQEIRESRRCRPNVTTCRQVGKTLRIQQREQLQRARLQQFFRRRNLELEEKGKAQHPQAREQGPSRRPGQVTVLKEPLSCARRISSPREQVTGTSSEVFPAQHPPPSGICRDLSDHLSSQAGGLPPQDTPIKKPPKHHRGTQTKAEGPTIKNDASQQTNYGVAVLDKEIIQLSDYLKEALQRELVLKQKMVILQDLLSTLIQASDSSWKGQLNEDKLKGKLRSLENQLYTCTQKYSPWGMKKVLLEMEDQKNSYEQKAKESLQKVLEEKMNAEQQLQSTQRSLALAEQKCEEWRSQYEALKEDWRTLGTQHRELESQLHVLQSKLQGADSRDLQMNQALRFLENEHQQLQAKIECLQGDRDLCSLDTQDLQDQLKRSEAEKLTLVTRVQQLQGLLQNQSLQLQEQEKLLTKKDQALPVWSPKSFPNEVEPEGTGKEKDWDLRDQLQKKTLQLQAKEKECRELHSELDNLSDEYLSCLRKLQHCREELNQSQQLPPRRQCGRWLPVLMVVIAAALAVFLANKDNLMI

Key:
[1] = target: T1, HA-TRAF3IP3 (human) (UniProt Q9Y228); assay: co-IP; HEK293T co-transfected, 48 h, lysed by ultrasound; IP with anti-HA (Figure 1A) or anti-Myc (Figure 1B) and protein A agarose, 4°C; washed six times with 400 mM NaCl, 1% Triton X-100, 1% SDS; Western blotting
T1 sequence: B1 chain

[2] = target: Myc-3C-C147S (Enterovirus 71 (EV71)); assay: as above

Molecule | binding [1] | binding [2]
GFP-3C-C147S (Enterovirus 71 (EV71)) (enzyme) | binds | –
B1 | – | binds

— PMC9260427
